From paper PMC10628517, “CXCL17 binds efficaciously to glycosaminoglycans with the potential to modulate chemokine signaling” (Frontiers in Immunology, 2023)
These are yes or no findings as the source states them, for the method shown. Some results given as binding are weak or reduced against the parent protein; the word gives no strength. Where a sequence is shown, tags or fusion partners need not be part of it.

Biological target: T1, human CXCL17 full-length ORF with a C-terminal His tag, expressed in CHO-761H cells (human), Q6UXB2
T1 chain: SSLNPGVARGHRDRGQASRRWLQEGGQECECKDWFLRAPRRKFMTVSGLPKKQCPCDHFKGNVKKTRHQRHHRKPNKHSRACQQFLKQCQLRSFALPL
Experiment: reducing SDS-PAGE and Western blot; CHO-761H cells transfected with C-terminally His-tagged CXCL17 ORF; lysates or Ni-NTA-concentrated supernatants run under reducing conditions and probed with anti-CXCL17 antiserum; bands of approximately 15 and 30 kDa
Details: remark: other sources report otherwise

binding: binds
B1: human CXCL17 full-length ORF with a C-terminal His tag, expressed in CHO-761H cells, Q6UXB2 22-119 (protein)
chain: T1 chain
